PubChem BioAssay AID2551 (National Center for Advancing Translational Sciences (NCATS), 2010)
Hit rate of the full screen: of about 310,000 compounds, about 17,000 (5.5%) were called active. The inconclusive results got no clear call from the source; some entries with a clear call stand among them for comparison. Calls follow the shape of the dose curve; as a rule, active = well fitted inhibition curve with a large enough effect; inconclusive = small, poorly fitted or top-dose-only effect, or effect the other way; inactive = no such curve, though single readings can be large or run the other way. Where the call is inconclusive, the potency comes from a doubtful curve fit.

Protein sequences, listed by entry. Tags and fused reporters are not part of them. Lines headed by an entry give the natural chain unless they say otherwise; changes in a name come on top.
UniProt P51450: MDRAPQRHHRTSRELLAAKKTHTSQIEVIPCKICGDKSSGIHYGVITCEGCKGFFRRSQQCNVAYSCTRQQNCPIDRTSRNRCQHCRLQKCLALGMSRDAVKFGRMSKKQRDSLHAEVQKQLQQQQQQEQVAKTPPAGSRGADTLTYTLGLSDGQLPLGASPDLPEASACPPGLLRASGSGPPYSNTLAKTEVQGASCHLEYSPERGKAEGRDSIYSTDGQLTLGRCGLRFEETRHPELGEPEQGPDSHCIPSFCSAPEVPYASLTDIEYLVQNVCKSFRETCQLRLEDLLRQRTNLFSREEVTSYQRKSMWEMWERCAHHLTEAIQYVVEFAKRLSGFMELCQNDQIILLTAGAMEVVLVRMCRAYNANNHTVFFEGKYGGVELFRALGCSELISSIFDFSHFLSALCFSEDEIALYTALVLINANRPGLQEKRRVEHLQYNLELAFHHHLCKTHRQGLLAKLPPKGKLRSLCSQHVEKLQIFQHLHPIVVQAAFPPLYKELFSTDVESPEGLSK

target: Nuclear receptor ROR-gamma (Mus musculus) (UniProt P51450); assay: qHTS for inhibitors of ROR gamma transcriptional activity; details: Drosophila S2 Gal4-RORgamma UAS-luciferase reporter, 20 h; activity change, negative = inhibition: at 53.6 µM (top of the series); also: nearly all actives have a fitted effect of over 60% in size
Outline: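 Using a luciferase readout, inhibitors were identified by reduced reporter activity in Drosophila cells coexpressing a copper-inducible Gal4–ROR gamma fusion and UAS-driven Photinus luciferase, incubated 20 hr after 700 uM copper sulfate.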
% is scaled to controls: 0 for no effect and ±100 for the full control effect; potency is read from the fitted curve at half-maximal effect.

SMILES	Potency	activity change, negative = inhibition
CCCCOc1ccc(C(=O)N(Cc2ccccc2)C2CCS(=O)(=O)C2)cc1 (stereo not given)	inconclusive: 15.8 µM [activator, single point]	
COC(Cn1cc(C)c(=O)[nH]c1=O)OC	inactive	
c1ccc(CN2CCN(c3nc(-c4ccccc4)nc(-n4ccnc4)n3)CC2)cc1	active: 14.1 µM	
C/C(=N\OCC(=O)Nc1ccc2c(c1)OCCO2)c1ccc2c(c1)OCCO2	inconclusive: 12.6 µM [activator, single point]	
CCOc1ccc(-c2nnc(-c3cccs3)o2)cc1	active: 11.2 µM	
Cc1ccc(S(=O)(=O)NC(=O)c2cc(C)n(-c3ccc(N(C)C)cc3)c2C)cc1	inconclusive: 31.6 µM [activator, single point]	
CC(C)(C)c1csc(NC(=O)c2ccccc2O)n1	inconclusive: 28.2 µM [inhibitor, single point]	
COC(=O)c1ccc([C@H]2CC(=O)O2)cc1	inconclusive: 2.82 µM [activator, partial curve, poor fit]	
Cc1cc(C(=O)N/N=C/c2sc(N3CCOCC3)nc2-c2ccccc2)c(C)o1	inconclusive: 14.1 µM [inhibitor, single point]	
Cc1cc(O)cc(O)c1C(=O)Cc1cnn(-c2ccccc2)c1	active: 0.199 µM	
O=C(CSc1nc2[nH]ncc2c(=O)n1-c1ccc(Cl)c(Cl)c1)NCc1ccccc1Cl	inconclusive: 15.8 µM [inhibitor, single point]	
Cc1nc(NC(=O)CN2CC(C)OC(C)C2)sc1C(=O)N(C)C (stereo not given)	inactive	
O=C(NCc1ccccn1)c1cc(-c2ccccc2Cl)nc2ccccc12	inconclusive: 11.2 µM [activator, partial curve]	
COc1ccc(-c2noc(CCC(=O)Nc3cccc(C)c3)n2)cc1	active: 0.282 µM	
O=C1C2C3C=CC(C4CC34)C2C(=O)N1Cc1ccccc1 (stereo not given)	inconclusive: 1.26 µM [activator, partial curve]	
Cc1cc(=S)nc(-c2ccccn2)[nH]1	active: 0.794 µM	
Cc1cc(SC#N)cc(C)c1NC(=O)CCl	active: 3.55 µM	
C=C(C)[C@@H]1CC=C(CN2CCC(N3CCC(C(=O)N4CCCC4)CC3)CC2)CC1	inconclusive: 14.1 µM [activator, single point]	
CCn1nc(C)c(CN2CCC(n3nccc3NC(=O)Cc3ccccc3)CC2)c1C	inactive	
O/N=C/c1ccc(OCC(O)COc2ccc(/C=N/O)cc2)cc1	inconclusive: 17.8 µM [inhibitor, single point]	
COc1ccc(C2NCCc3c2[nH]c2ccccc32)cc1CSc1nc2ccccc2s1 (stereo not given)	inconclusive: 35.5 µM [inhibitor, single point]	
O=C(Nc1nccs1)C1CC2CCC1C2 (stereo not given)	active: 7.94 µM	
COc1ccc(-n2cc(-c3ccccc3)[nH]c2=S)cc1	active: 2.24 µM	
O=C(CN1C(=O)c2ccccc2S1(=O)=O)c1cccc(Br)c1	inconclusive: 4.47 µM [inhibitor, full curve]	
CC(C)NC(=O)NC(=O)COC(=O)CCCSc1nc2ccccc2s1	active: 11.2 µM	

SMILES	Potency	activity change, negative = inhibition
Cc1cccc(OC(=O)c2sc3ncn(C)c(=O)c3c2C)c1	inconclusive: 3.16 µM [activator, partial curve, poor fit]	
O=C1C2C3C=CC(C3)C2C(=O)N1Nc1ccc([N+](=O)[O-])cc1[N+](=O)[O-] (stereo not given)	inactive	
C/C(CCC(C)C)=N\Nc1cc(C)c2ccccc2n1	inconclusive: 7.94 µM [inhibitor, partial curve]	
Cc1ccc(CSc2nnc(SCC(=O)N/N=C/C=C/c3ccco3)s2)cc1	active: 7.08 µM	
CCC1(c2ccc(F)cc2)NC(=O)N(CC(=O)Nc2ccc(-c3nc4ccc(C)cc4s3)cc2)C1=O (stereo not given)	active: 0.447 µM	
N#CC(C#N)=C(Nc1ccc(F)cc1)SCc1cccc(Br)c1	inconclusive: 35.5 µM [inhibitor, single point]	
Cn1c(Oc2ccccc2NCc2cccc(Br)c2)cc(=O)n(C)c1=O	inconclusive: 35.5 µM [activator, single point]	
CN(C)CCNC(=S)Nc1ccccc1C(C)(C)C	inactive	
CC(NC(=S)NCCc1ccccc1)C(c1cccs1)N1CCN(Cc2ccccc2)CC1 (stereo not given)	active: 5.01 µM	
C=CCN(c1ccccc1)S(=O)(=O)c1ccc(Cl)c(C(=O)OCC(=O)c2[nH]c(C)c(C(C)=O)c2C)c1	inconclusive: 10 µM [activator, partial curve]	
O=C(Cc1ccccc1F)Nc1ccc2c(c1)CCC2	inconclusive: 3.98 µM [activator, single point]	
COc1cccc(/C=N/NC(=O)C(C)Cn2cnc3ccccc32)c1 (stereo not given)	inconclusive: 28.2 µM [inhibitor, single point]	
CC(C)Cc1ccc(C(=O)Nc2ccc(Cc3ccncc3)cc2)o1	inconclusive: 35.5 µM [activator, single point]	
CCOC(=O)C1=C(CSc2nc3ccccc3s2)NC(=O)NC1c1ccc(OC)cc1 (stereo not given)	inconclusive: 17.8 µM [activator, partial curve]	
Cc1c(NC(=O)CSCc2ccc(Br)cc2)c(=O)n(-c2ccccc2)n1C	inactive	
CC1CC2=C(NC(=S)NC2c2ccc(F)cc2)/C(=C/c2ccc(F)cc2)C1 (stereo not given)	active: 1.58 µM	
O=C(CCn1nc(-c2ccc(F)cc2)ccc1=O)NCc1ccccc1	inactive	
CCCCCn1c(=S)[nH]c2cc(C(=O)N3CCN(C(=O)OCC)CC3)ccc2c1=O	inconclusive: 25.1 µM [inhibitor, single point]	
CC(C)(C)c1ccc(C(=O)NCC(=O)OCC(=O)Nc2ccc3c(c2)OCCO3)cc1	inactive	
COc1ccc(CCC(C)NCCc2ccc(Cl)cc2Cl)cc1 (stereo not given)	inactive	
CCNc1ncc2nc(-c3ccc(OC)cc3)c(=O)n(Cc3ccc(F)cc3)c2n1	inactive	
CCNC(=S)Nc1ccc(Cl)cc1	active: 8.91 µM	
COc1cccc(CN2CCCC(N3CCc4ccccc4C3)C2)c1O (stereo not given)	inactive	
Oc1cccc(-c2nc3ccccc3s2)c1	inconclusive: 10 µM [inhibitor, partial curve, poor fit]	
CCCCNC(=O)c1ccc(Cn2c(=S)[nH]c3c([nH]c4ccc(OC)cc43)c2=O)cc1	active: 12.6 µM	

SMILES	Potency	activity change, negative = inhibition
Cc1ccc(S(=O)(=O)Nc2cc(C)cn(Cc3ccc(F)cc3)c2=O)cc1	inconclusive: 35.5 µM [inhibitor, single point]	
C/C(=N\NS(=O)(=O)c1cccc([N+](=O)[O-])c1)c1cc2ccccc2o1	inconclusive: 0.0251 µM [activator, full curve, poor fit]	
COC(=O)c1sc(N)c(C(=O)OC)c1COC(=O)CNS(=O)(=O)c1ccc(C)c(C)c1	inactive	
CCCNC(=O)c1ccc2c(c1)ncn2-c1ccccc1OC		inactive: 28.1% [at 0.365 µM]
Oc1ccc2ccccc2c1CN1CCN(c2ccccc2)CC1	inactive	
CCCn1c(=O)c2[nH]c(C3CCCC3)nc2n(CCC)c1=O	inconclusive: 35.5 µM [inhibitor, single point]	
O/N=C1\CCC\C1=C/c1ccco1	inactive	
CN(C)CCN(C(=O)c1ccccc1Cl)c1nc2c(Cl)cccc2s1	inactive	
O=[N+]([O-])c1cccnc1N1CCC(c2cc(-c3ccc(Cl)cc3Cl)n[nH]2)CC1	inactive	
COc1cc(/C=N/NC2=NC(C)(C)Cc3ccccc32)cc(OC)c1OC	inactive	
COc1cc(OC)cc(C(=O)NC2CC(C)(C)NC(C)(C)C2)c1	inconclusive: 0.282 µM [inhibitor, full curve]	
COc1ccc(C(=O)/C(C#N)=N/Nc2cccc([N+](=O)[O-])c2)cc1	inconclusive: 5.01 µM [activator, partial curve]	
COc1ccc2nc(NC(=O)C3CCN(S(=O)(=O)c4cccnc4)CC3)sc2c1	inactive	
Cc1cc(OCc2ccc(C(=O)Nc3ccc(C(=O)O)cc3)o2)ccc1Cl	inconclusive: 25.1 µM [activator, single point]	
C/C=C\C=C\C(=O)Nc1cccc(C2=NOC3(C2)C[C@H](C(N)=O)N(C(=O)c2ccccc2C(=O)c2ccccc2)C3)c1 (stereo not given in full)	inactive	
CCOP(=O)(OCC)C(NC(=O)c1cc([N+](=O)[O-])cc([N+](=O)[O-])c1)C(F)(F)F (stereo not given)	inactive	
CCOC(=O)c1ccccc1NS(=O)(=O)c1ccc(OC)cc1	inconclusive: 35.5 µM [activator, single point]	
CC(C)C(=O)Nc1ccc(C(=O)Nc2ccc(S(=O)(=O)N3CCOCC3)cc2)cc1	inconclusive: 1.78 µM [activator, full curve]	
Cc1nn(C)cc1/C=C(/C#N)C(N)=O	inactive	
CC(C)(C)NNC(=S)Nc1cccc(C(F)(F)F)c1	active: 1 µM	
O=C1CC(N(Cc2ccc3c(c2)OCO3)C(=O)Nc2ccc(F)cc2)C(=O)N1c1ccccc1 (stereo not given)	inactive	
COc1ccc(NC(=O)CSc2nc3ncccc3[nH]2)cc1OC	inconclusive: 0.708 µM [inhibitor, single point]	
Cc1ccc(-n2c3nc(=O)[nH]c(=O)c-3cc3cc([N+](=O)[O-])ccc32)cc1	inconclusive: 0.005 µM [inhibitor, full curve, poor fit]	
CC1CC=CC2C1C(=O)N(Cc1ccccc1)C2c1cccc([N+](=O)[O-])c1 (stereo not given)	inconclusive: 35.5 µM [activator, single point]	
COc1ccc(C(=O)Cn2nc(CNc3ccc(Br)cc3)[n+]3c2CCCCC3)cc1	inconclusive: 12.6 µM [activator, partial curve]	

Quoted from the listing.
Under Potency, CCOC(=O)c1ccccc1NS(=O)(=O)c1ccc(OC)cc1 shows inconclusive: 35.5 µM [activator, single point]
Under Potency, COC(=O)c1sc(N)c(C(=O)OC)c1COC(=O)CNS(=O)(=O)c1ccc(C)c(C)c1 shows inactive
Under Potency, CC(C)C(=O)Nc1ccc(C(=O)Nc2ccc(S(=O)(=O)N3CCOCC3)cc2)cc1 shows inconclusive: 1.78 µM [activator, full curve]
Under Potency, O/N=C1\CCC\C1=C/c1ccco1 shows inactive
